Data as given in PubChem BioAssay AID686938 (Drosophila RNAi Screening Center, 2013).

Test: 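Looking for CRAC channel components and the factors controlling them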 (primary screen)
Cell system: Drosophila S2R+ cells
Reagent: long dsRNA against Drosophila genes, about 0.25 µg dsRNA per well, roughly 10,000 cells
Duration: 5 days of knock-down before the calcium assay
Treatment: thapsigargin (SERCA pump blocker) to empty calcium stores; entry signal taken 4 min after adding it
Detection: 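Per-well fluo-4 fluorescence in two replicates, unnormalised, measured in resting cells and 4 min after store depletion by the SERCA blocker thapsigargin; ratio of the two present in few wells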
Scale: calcium entry signal: higher = stronger calcium signal after store depletion; resting calcium signal: higher = higher resting calcium signal
Call rule: 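Hit if the duplicate-averaged plate z-score for entry over resting signal is under −3; wells with weak total dye signal (Fmax z < −2) or more than 5 off-targets removed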
Calls: active = strongly reduced calcium entry; inactive = no strong reduction
The screen tested about 23,000 reagents; this is an unselected part of those that have a named target and a result. Of all reagents, 75 (0.33%) were called active. 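Raw plate signals without normalisation; calls rest on plate z-scores that were not deposited; ratio present for only 364 wells.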 A plus sign joins genes that one reagent is predicted to hit. The record does not give: the dose of the treatment.

dpr20 [DRSC08265] → calcium entry signal, replicate 1 (fluorescence units) = 2.45e7; calcium entry signal, replicate 2 (fluorescence units) = 2.20e7; resting calcium signal, replicate 1 (fluorescence units) = 1.20e7; resting calcium signal, replicate 2 (fluorescence units) = 1.13e7; outcome = inactive
EMC3 [DRSC02989] → calcium entry signal, replicate 1 (fluorescence units) = 2.01e7; calcium entry signal, replicate 2 (fluorescence units) = 3.75e7; resting calcium signal, replicate 1 (fluorescence units) = 9.84e6; resting calcium signal, replicate 2 (fluorescence units) = 1.61e7; outcome = inactive
dpr8 [DRSC19406] → calcium entry signal, replicate 1 (fluorescence units) = 3.08e7; calcium entry signal, replicate 2 (fluorescence units) = 3.72e7; resting calcium signal, replicate 1 (fluorescence units) = 1.64e7; resting calcium signal, replicate 2 (fluorescence units) = 1.68e7; outcome = inactive
dpr8 [DRSC19600] → calcium entry signal, replicate 1 (fluorescence units) = 3.33e7; calcium entry signal, replicate 2 (fluorescence units) = 3.48e7; resting calcium signal, replicate 1 (fluorescence units) = 1.77e7; resting calcium signal, replicate 2 (fluorescence units) = 1.69e7; outcome = inactive
dpr8 [DRSC19938] → calcium entry signal, replicate 1 (fluorescence units) = 2.80e7; calcium entry signal, replicate 2 (fluorescence units) = 3.08e7; resting calcium signal, replicate 1 (fluorescence units) = 1.53e7; resting calcium signal, replicate 2 (fluorescence units) = 1.48e7; outcome = inactive
dpr8 [DRSC19939] → calcium entry signal, replicate 1 (fluorescence units) = 2.88e7; calcium entry signal, replicate 2 (fluorescence units) = 3.40e7; resting calcium signal, replicate 1 (fluorescence units) = 1.50e7; resting calcium signal, replicate 2 (fluorescence units) = 1.42e7; outcome = inactive
gsb-n [DRSC04021] → calcium entry signal, replicate 1 (fluorescence units) = 2.10e7; calcium entry signal, replicate 2 (fluorescence units) = 4.04e7; resting calcium signal, replicate 1 (fluorescence units) = 1.11e7; resting calcium signal, replicate 2 (fluorescence units) = 1.75e7; outcome = inactive
gsb-n [DRSC04693] → calcium entry signal, replicate 1 (fluorescence units) = 3.28e7; calcium entry signal, replicate 2 (fluorescence units) = 3.17e7; resting calcium signal, replicate 1 (fluorescence units) = 1.74e7; resting calcium signal, replicate 2 (fluorescence units) = 1.50e7; outcome = inactive
CG10845 [DRSC14272] → calcium entry signal, replicate 1 (fluorescence units) = 3.44e7; calcium entry signal, replicate 2 (fluorescence units) = 4.40e7; resting calcium signal, replicate 1 (fluorescence units) = 1.74e7; resting calcium signal, replicate 2 (fluorescence units) = 1.85e7; outcome = inactive
Ir51b [DRSC05540] → calcium entry signal, replicate 1 (fluorescence units) = 3.64e7; calcium entry signal, replicate 2 (fluorescence units) = 4.71e7; resting calcium signal, replicate 1 (fluorescence units) = 1.84e7; resting calcium signal, replicate 2 (fluorescence units) = 2.07e7; outcome = inactive
CG17931 + CG42446 [DRSC15293] → calcium entry signal, replicate 1 (fluorescence units) = 3.51e7; calcium entry signal, replicate 2 (fluorescence units) = 4.83e7; resting calcium signal, replicate 1 (fluorescence units) = 1.76e7; resting calcium signal, replicate 2 (fluorescence units) = 7.68e7; outcome = inactive
CG10337 [DRSC02038] → calcium entry signal, replicate 1 (fluorescence units) = 5.80e7; calcium entry signal, replicate 2 (fluorescence units) = 4.72e7; resting calcium signal, replicate 1 (fluorescence units) = 2.75e7; resting calcium signal, replicate 2 (fluorescence units) = 1.95e7; outcome = inactive
eIF3j [DRSC06107] → calcium entry signal, replicate 1 (fluorescence units) = 3.39e7; calcium entry signal, replicate 2 (fluorescence units) = 2.47e7; resting calcium signal, replicate 1 (fluorescence units) = 1.46e7; resting calcium signal, replicate 2 (fluorescence units) = 1.23e7; outcome = inactive
ovo [DRSC18050] → calcium entry signal, replicate 1 (fluorescence units) = 2.78e7; calcium entry signal, replicate 2 (fluorescence units) = 2.71e7; resting calcium signal, replicate 1 (fluorescence units) = 1.16e7; resting calcium signal, replicate 2 (fluorescence units) = 1.23e7; outcome = inactive
ovo [DRSC18812] → calcium entry signal, replicate 1 (fluorescence units) = 3.29e7; calcium entry signal, replicate 2 (fluorescence units) = 4.35e7; resting calcium signal, replicate 1 (fluorescence units) = 1.69e7; resting calcium signal, replicate 2 (fluorescence units) = 2.01e7; outcome = inactive
tral [DRSC09779] → calcium entry signal, replicate 1 (fluorescence units) = 5.14e7; calcium entry signal, replicate 2 (fluorescence units) = 4.27e7; resting calcium signal, replicate 1 (fluorescence units) = 3.57e7; resting calcium signal, replicate 2 (fluorescence units) = 2.02e7; outcome = inactive
flip [DRSC12326] → calcium entry signal, replicate 1 (fluorescence units) = 3.10e7; calcium entry signal, replicate 2 (fluorescence units) = 5.21e7; resting calcium signal, replicate 1 (fluorescence units) = 1.61e7; resting calcium signal, replicate 2 (fluorescence units) = 2.41e7; outcome = inactive
CR43359 [DRSC03744] → calcium entry signal, replicate 1 (fluorescence units) = 3.41e7; calcium entry signal, replicate 2 (fluorescence units) = 5.13e7; resting calcium signal, replicate 1 (fluorescence units) = 1.75e7; resting calcium signal, replicate 2 (fluorescence units) = 1.91e7; outcome = inactive

Part of the list above, set out differently.
predicted target,amplicon,"calcium entry signal, replicate 1 (fluorescence units)","calcium entry signal, replicate 2 (fluorescence units)","resting calcium signal, replicate 1 (fluorescence units)","resting calcium signal, replicate 2 (fluorescence units)",outcome
ovo,DRSC18050,2.78e7,2.71e7,1.16e7,1.23e7,inactive
ovo,DRSC18812,3.29e7,4.35e7,1.69e7,2.01e7,inactive
tral,DRSC09779,5.14e7,4.27e7,3.57e7,2.02e7,inactive
flip,DRSC12326,3.10e7,5.21e7,1.61e7,2.41e7,inactive

The list goes on:
Scsalpha1 [DRSC08698] → calcium entry signal, replicate 1 (fluorescence units) = 4.51e7; calcium entry signal, replicate 2 (fluorescence units) = 3.56e7; resting calcium signal, replicate 1 (fluorescence units) = 3.18e7; resting calcium signal, replicate 2 (fluorescence units) = 1.36e7; outcome = inactive
CG10646 [DRSC09764] → calcium entry signal, replicate 1 (fluorescence units) = 4.10e7; calcium entry signal, replicate 2 (fluorescence units) = 2.98e7; resting calcium signal, replicate 1 (fluorescence units) = 2.11e7; resting calcium signal, replicate 2 (fluorescence units) = 1.60e7; outcome = inactive
CG32187 [DRSC10521] → calcium entry signal, replicate 1 (fluorescence units) = 4.89e7; calcium entry signal, replicate 2 (fluorescence units) = 7.40e7; resting calcium signal, replicate 1 (fluorescence units) = 2.32e7; resting calcium signal, replicate 2 (fluorescence units) = 2.99e7; outcome = inactive
CG3494 [DRSC04375] → calcium entry signal, replicate 1 (fluorescence units) = 4.36e7; calcium entry signal, replicate 2 (fluorescence units) = 4.66e7; resting calcium signal, replicate 1 (fluorescence units) = 2.06e7; resting calcium signal, replicate 2 (fluorescence units) = 2.07e7; outcome = inactive
Nckx30C [DRSC02686] → calcium entry signal, replicate 1 (fluorescence units) = 2.98e7; calcium entry signal, replicate 2 (fluorescence units) = 5.36e7; resting calcium signal, replicate 1 (fluorescence units) = 1.46e7; resting calcium signal, replicate 2 (fluorescence units) = 2.12e7; outcome = inactive
Nckx30C [DRSC02687] → calcium entry signal, replicate 1 (fluorescence units) = 2.99e7; calcium entry signal, replicate 2 (fluorescence units) = 5.48e7; resting calcium signal, replicate 1 (fluorescence units) = 1.39e7; resting calcium signal, replicate 2 (fluorescence units) = 2.14e7; outcome = inactive
Nckx30C [DRSC02688] → calcium entry signal, replicate 1 (fluorescence units) = 3.41e7; calcium entry signal, replicate 2 (fluorescence units) = 4.10e7; resting calcium signal, replicate 1 (fluorescence units) = 1.56e7; resting calcium signal, replicate 2 (fluorescence units) = 1.72e7; outcome = inactive
Nckx30C [DRSC02689] → calcium entry signal, replicate 1 (fluorescence units) = 3.12e7; calcium entry signal, replicate 2 (fluorescence units) = 3.38e7; resting calcium signal, replicate 1 (fluorescence units) = 1.80e7; resting calcium signal, replicate 2 (fluorescence units) = 1.70e7; outcome = inactive
CG43062 [DRSC12866] → calcium entry signal, replicate 1 (fluorescence units) = 2.92e7; calcium entry signal, replicate 2 (fluorescence units) = 3.53e7; resting calcium signal, replicate 1 (fluorescence units) = 1.33e7; resting calcium signal, replicate 2 (fluorescence units) = 1.59e7; outcome = inactive
